Drawing on PMC10699508, this text covers binding for six substances.

The chains behind the UniProt entries cited, without tags or fusion partners. Where a name states a change or a piece, a line headed by the entry shows the natural chain unless it says otherwise. A line that says so, or that is headed by a name, gives the form on record, which may keep a tag or linker.
UniProt P11802: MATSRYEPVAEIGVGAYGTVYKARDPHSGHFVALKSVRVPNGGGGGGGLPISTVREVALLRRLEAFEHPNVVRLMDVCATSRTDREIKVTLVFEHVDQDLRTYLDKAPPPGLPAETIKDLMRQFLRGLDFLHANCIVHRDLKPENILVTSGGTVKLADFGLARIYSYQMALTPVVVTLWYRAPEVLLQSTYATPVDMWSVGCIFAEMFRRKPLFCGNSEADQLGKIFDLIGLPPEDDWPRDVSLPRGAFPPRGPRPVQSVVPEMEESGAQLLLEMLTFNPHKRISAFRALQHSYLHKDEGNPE
UniProt P24385: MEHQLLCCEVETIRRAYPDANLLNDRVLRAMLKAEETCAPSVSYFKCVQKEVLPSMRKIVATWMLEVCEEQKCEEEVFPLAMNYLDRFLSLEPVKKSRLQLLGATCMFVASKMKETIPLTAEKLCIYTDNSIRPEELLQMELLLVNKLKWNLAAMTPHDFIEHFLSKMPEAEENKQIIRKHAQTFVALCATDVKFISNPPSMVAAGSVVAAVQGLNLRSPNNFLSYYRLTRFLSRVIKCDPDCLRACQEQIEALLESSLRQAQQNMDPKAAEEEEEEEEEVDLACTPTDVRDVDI
cyclin D1 single mutant of C7 (C8 present) (P24385, form named): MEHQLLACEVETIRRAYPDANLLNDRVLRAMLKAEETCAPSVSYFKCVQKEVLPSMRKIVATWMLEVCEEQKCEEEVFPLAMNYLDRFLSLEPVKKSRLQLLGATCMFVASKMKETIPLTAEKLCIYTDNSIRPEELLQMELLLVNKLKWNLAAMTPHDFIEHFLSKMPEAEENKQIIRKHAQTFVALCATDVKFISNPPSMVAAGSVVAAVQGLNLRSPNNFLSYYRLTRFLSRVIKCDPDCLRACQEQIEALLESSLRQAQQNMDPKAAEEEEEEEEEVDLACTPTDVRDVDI
cyclin D1 single mutant of C8 (C7 present) (P24385, form named): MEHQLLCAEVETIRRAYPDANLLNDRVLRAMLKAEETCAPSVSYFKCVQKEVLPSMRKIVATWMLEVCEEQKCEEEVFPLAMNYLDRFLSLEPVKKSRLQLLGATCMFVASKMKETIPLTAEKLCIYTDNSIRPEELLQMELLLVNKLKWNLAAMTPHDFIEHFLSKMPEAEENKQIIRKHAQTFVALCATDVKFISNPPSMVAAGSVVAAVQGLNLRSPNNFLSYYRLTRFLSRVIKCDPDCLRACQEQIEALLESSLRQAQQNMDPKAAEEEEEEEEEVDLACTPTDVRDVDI
UniProt P30281: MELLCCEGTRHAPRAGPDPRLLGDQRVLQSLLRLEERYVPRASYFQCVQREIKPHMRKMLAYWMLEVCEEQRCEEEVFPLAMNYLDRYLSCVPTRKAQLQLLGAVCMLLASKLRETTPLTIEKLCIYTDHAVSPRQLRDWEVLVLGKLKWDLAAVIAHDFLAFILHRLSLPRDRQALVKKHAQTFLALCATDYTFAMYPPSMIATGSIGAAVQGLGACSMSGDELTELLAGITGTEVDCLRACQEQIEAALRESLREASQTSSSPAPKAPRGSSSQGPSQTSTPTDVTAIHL

The target of test [1] is WT CDK4-FLAG (UniProt P11802). Put plainly: cross-linking; CDK4-FLAG and cyclin D1-HA or cyclin D3-HA (WT or cysteine mutants) overexpressed in HPASMCs, H2O2 for 15 minutes (200 µM in the comparison); disulfide dimer by nonreducing immunoblot. In general terms: Immunoblotting shows a protein as a band on a membrane.
The target of test [2] is C78A CDK4-FLAG (UniProt P11802). Put plainly: co-IP; CDK4-FLAG (WT or mutant) and WT cyclin D1-HA overexpressed and coimmunoprecipitated from HAP1 CDK4 KO cells (WT also from HPASMCs), then used in a kinase assay.
Test [3] deals with WT CDK4-FLAG (UniProt P11802). Described as above.
Another test concerns the target C135A CDK4-FLAG (UniProt P11802). Described as above.
In a further test the target is C135S CDK4-FLAG (UniProt P11802). The test is described as above.
Test [4] has as its target C78A CDK4-FLAG (UniProt P11802). As to the kind of experiment: cross-linking; data not shown: disulfide formation (redox activity) of CDK4 cysteine to alanine mutants.
A further test has as its target CDK4 C202A (UniProt P11802). The description is as above.
Test [5] has as its target CDK4 (cyclin-dependent kinase 4) (human (endogenous in HPASMCs and HPAECs)) (UniProt P11802). Put plainly: cross-linking; oxidant-induced intermolecular disulfide of endogenous proteins in HPASMCs (H2O2 15 min; also UV, auranofin, serum synchronisation; donor and IPAH cells); lysis in nonreducing sample buffer with 100 mmol/L maleimide; nonreducing immunoblot, complex at ≈75 kDa.

Test [6] shares this target. Put plainly: cross-linking; oxidant-induced intermolecular disulfide of endogenous proteins in human pulmonary arterial endothelial cells treated with H2O2; nonreducing immunoblot.

Results are given in words; binding and its absence hold for the method and conditions named. Binding seen in cells or lysates may run through a third protein. Some entries that bind do so weakly or less than the wild type.

On to “cyclin D1 single mutant of C7 (C8 present) (from UniProt P24385 1-295)”, for which the binding result in the test with WT CDK4-FLAG [1] was “binds”.

Turning to “WT cyclin D3-HA (from UniProt P30281 1-292)”, the binding entry in the test with WT CDK4-FLAG [1] was “binds”.

Consider “WT cyclin D1-HA (from UniProt P24385 1-295)”, for which the binding result with WT CDK4-FLAG [1], in the test with C78A CDK4-FLAG [2], with WT CDK4-FLAG [3], with C135A CDK4-FLAG, with C135S CDK4-FLAG and with C78A CDK4-FLAG [4] was “binds” throughout. Further, the binding result in the test with CDK4 C202A is “binds”.

As to “cyclin D1 single mutant of C8 (C7 present) (from UniProt P24385 1-295)”, in the test with WT CDK4-FLAG [1], the binding entry is listed as “binds”.

For the substance cyclin D1 (from UniProt P24385 1-295), the binding entry in [5] and in [6] was “binds” throughout.

Turning to cyclin D3 (from UniProt P30281 1-292), the binding result in test [5] and in test [6] was “binds” in each case.
